Results are given in words; binding and its absence hold for the method and conditions named. Binding seen in cells or lysates may run through a third protein. Some entries that bind do so weakly or less than the wild type.
Legend:
[1] = molecular target: cGAS of the co-immunoprecipitation in VSV-infected cells (Supplementary Fig. 4a) (human) (UniProt Q8N884); assay: co-IP
[2] = molecular target: cyclic GMP-AMP (cGAMP) synthase (cGAS), endogenous in THP-1 cells (human (endogenous in THP-1)) (UniProt Q8N884); assay: co-IP

Chains of the proteins cited; added tags and fusions are not shown.
UniProt Q8N884: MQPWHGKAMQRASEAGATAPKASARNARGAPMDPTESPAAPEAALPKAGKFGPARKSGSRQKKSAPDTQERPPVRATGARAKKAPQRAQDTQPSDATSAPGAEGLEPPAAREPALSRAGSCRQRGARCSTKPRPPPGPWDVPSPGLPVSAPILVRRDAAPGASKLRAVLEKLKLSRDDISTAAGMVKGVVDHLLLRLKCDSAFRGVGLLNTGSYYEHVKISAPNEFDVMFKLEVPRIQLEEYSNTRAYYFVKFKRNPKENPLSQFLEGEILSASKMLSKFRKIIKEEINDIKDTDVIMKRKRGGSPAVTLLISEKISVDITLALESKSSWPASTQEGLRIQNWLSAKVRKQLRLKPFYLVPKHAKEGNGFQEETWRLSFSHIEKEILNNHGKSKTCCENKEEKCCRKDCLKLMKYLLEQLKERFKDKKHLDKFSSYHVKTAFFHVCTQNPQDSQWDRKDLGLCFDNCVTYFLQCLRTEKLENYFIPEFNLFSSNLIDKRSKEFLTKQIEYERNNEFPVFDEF

Substance: Ku70 (from UniProt P12956 1-609)
- binding [1]: binds
- binding [2]: binds

Substance: DNA-dependent protein kinase catalytic subunit (DNA-PKcs) (from UniProt P78527 1-4128)
- binding [1]: binds
- binding [2]: binds

Substance: Ku80 (from UniProt P13010 1-732)
- binding [1]: binds
- binding [2]: binds
